According to PMC7026339, “Human bone morphogenetic protein-2 (hBMP-2) characterization by physical–chemical, immunological and biological assays” (AMB Express, 2020):
These are yes or no findings as the source states them, for the method shown. Some entries that bind do so weakly or less than the wild type. For part of these data: Where a sequence is shown, tags or fusion partners need not be part of it. Blank lines part the entries; values can stand above or below the binder they belong to.

How the values were obtained:
[1] = molecular target: T1, CHO-derived hBMP-2 (Infuse, Medtronic), 114 amino acid glycosylated subunit (form A) (human) (UniProt P12643); experiment: SDS-PAGE and Western blotting under reducing conditions; 15% acrylamide gel, Coomassie Blue G stain; Western blot with anti-hBMP-2 rabbit IgG; reducing conditions; both purified
T1 sequence (chain, glycosylated at one site with high-mannose-type glycans): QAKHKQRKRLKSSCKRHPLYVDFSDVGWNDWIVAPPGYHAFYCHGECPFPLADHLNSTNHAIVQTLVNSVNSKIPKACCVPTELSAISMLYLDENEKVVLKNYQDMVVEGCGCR

[2] = molecular target: T1, CHO-derived hBMP-2 (Infuse, Medtronic), 114 amino acid glycosylated subunit (form A) (human); experiment: MALDI-TOF-MS; linear positive mode, 5000-40,000 Da, sinapinic acid matrix in 0.1% TFA and 50% acetonitrile; both purified
[3] = molecular target: E. coli-derived methionyl-human bone morphogenetic protein-2 (met-hBMP-2, GenScript) (human) (UniProt P12643); experiment: SDS-PAGE and Western blotting under reducing conditions; 15% acrylamide gel, Coomassie Blue G stain; Western blot with anti-hBMP-2 rabbit IgG; reducing conditions; both purified

B1: CHO-derived hBMP-2 (Infuse, Medtronic), 114 amino acid glycosylated subunit (form A) (natural protein, human, UniProt P12643 283-396, looked up)
chain: QAKHKQRKRLKSSCKRHPLYVDFSDVGWNDWIVAPPGYHAFYCHGECPFPLADHLNSTNHAIVQTLVNSVNSKIPKACCVPTELSAISMLYLDENEKVVLKNYQDMVVEGCGCR
modifications: glycosylated at one site with high-mannose-type glycans
notes: human bone morphogenetic protein-2, authentic mature protein of 114 AA without initial Met (backbone 12,905 Da); Infuse is a disulfide-linked dimeric protein with two major subunit species of 114 and 131 amino acids; this molecule is the 114 AA subunit; also called 14,377 Da form; 114 AA monomer
binding [1]: no binding (condition: under reducing conditions)

binding [2]: binds
B2: CHO-derived hBMP-2 (Infuse, Medtronic), 131 amino acid glycosylated subunit (form B) (protein, UniProt P12643 266-396)
chain: TFGHDGKGHPLHKREKRQAKHKQRKRLKSSCKRHPLYVDFSDVGWNDWIVAPPGYHAFYCHGECPFPLADHLNSTNHAIVQTLVNSVNSKIPKACCVPTELSAISMLYLDENEKVVLKNYQDMVVEGCGCR
modifications: glycosylated at one site with high-mannose-type glycans

B3: E. coli-derived methionyl-human bone morphogenetic protein-2 (met-hBMP-2, GenScript) (natural protein)
chain: MQAKHKQRKRLKSSCKRHPLYVDFSDVGWNDWIVAPPGYHAFYCHGECPFPLADHLNSTNHAIVQTLVNSVNSKIPKACCVPTELSAISMLYLDENEKVVLKNYQDMVVEGCGCR
notes: initial methionine of methionyl-hBMP-2 (printed as 'initial Met'); human bone morphogenetic protein-2, mature protein of 114 AA (theoretical backbone 12,905 Da without the initial Met; 13,036 Da with it); theoretical mass of the dimer 26,072 Da; also called E. coli-derived hBMP-2; GenScript preparation; source: bought: GenScript (from E. coli), lyophilized, reconstituted in 20 mM acetic acid
binding [3]: no binding (condition: under reducing conditions)
